Measurements reported in PubChem BioAssay AID720505 (Drosophila RNAi Screening Center, 2013)

Assay: 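Genes needed for store-operated calcium entry in fly cells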 (primary screen)
Cell system: Drosophila S2R+ cells
Reagents: long dsRNA against Drosophila genes
Treatment: thapsigargin (2 µM) in calcium-free buffer to empty internal stores, then 2 mM calcium added back
Detection: 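Stores emptied by 2 µM thapsigargin without calcium, then 2 mM calcium re-added; fluo-4 fluorescence followed by FLIPR in 384-well plates, per-well averaged endpoint, raw; two screen passes, some wells retested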
Scale: calcium signal and retest calcium signal: higher = more calcium entry after store depletion
Active means: 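About 1500 genes called as lowering calcium entry, by varying amounts, judged against per-plate control wells with STIM1 as positive and Rho1 as negative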
Calls: active = called as lowering calcium entry; inactive = not called
The screen tested about 20,000 reagents; below is a random part of those that have a named target and a result. Of all reagents, about 2,100 (10%) are marked active. 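Raw plate signals without normalisation; calls rest on control-based scores that were not deposited; replicate 2 separates called from uncalled poorly.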 Names joined by + are all predicted targets of the reagent. The record does not give: the amount of reagent, the time to read-out.

| gene knocked down | dsRNA | calcium signal, replicate 1 | calcium signal, replicate 2 | retest calcium signal, replicate 1 | retest calcium signal, replicate 2 | Call |
| --- | --- | --- | --- | --- | --- | --- |
| CG8478 | DRSC16427 | 152 | 88 | – | – | inactive |
| CG33552 | DRSC01551 | 74.6 | 154 | – | – | inactive |
| His3.3A | DRSC03343 | 69.8 | 107 | – | – | active |
| hll | DRSC01944 | 55.9 | 124 | – | – | active |
| Aladin | DRSC18121 | 206 | 130 | – | – | inactive |
| Obp49a | DRSC22562 | 94 | 150 | – | – | inactive |
| CG13384 | DRSC02258 | 107 | 276 | – | – | inactive |
| obst-I | DRSC08339 | 74.2 | 159 | – | – | active |
| dpn | DRSC07605 | 133 | 111 | – | – | inactive |
| CG4752 | DRSC04486 | 68.9 | 115 | – | – | inactive |
| CG6034 | DRSC10572 | 114 | 133 | – | – | inactive |
| Fum4 | DRSC22577 | 204 | 179 | – | – | inactive |
| Odc1 | DRSC07482 | 183 | 158 | – | – | inactive |
| CG33271 | DRSC10583 | 117 | 95.2 | – | – | inactive |
| CG7101 | DRSC20023 | 169 | 140 | – | – | inactive |
| CG7101 | DRSC22845 | 89.9 | 119 | – | – | inactive |
| CG42663 | DRSC06158 | 113 | 149 | – | – | inactive |
| CG42663 | DRSC06404 | 116 | 213 | 102 | 123 | inactive |
| CG10366 | DRSC02046 | 92.5 | 104 | – | – | inactive |
| Mfap1 | DRSC08154 | 76.8 | 133 | – | – | active |
| Cpr57A + Obp57d | DRSC06708 | 76.1 | 193 | – | – | active |
| Cpr57A + Obp57d | DRSC22719 | 175 | 215 | – | – | inactive |
| Gbp3 | DRSC15206 | 242 | 164 | – | – | inactive |
| Vago | DRSC19833 | 112 | 125 | – | – | inactive |
| MP1 | DRSC12124 | 62.5 | 60.2 | 112 | 109 | active |
| Prosap | DRSC06382 | 120 | 188 | – | – | inactive |
| Prosap | DRSC07081 | 255 | 158 | – | – | inactive |
| CG16825 | DRSC02526 | 91.6 | 118 | – | – | inactive |
| Usp5 | DRSC08244 | 84.3 | 98.7 | – | – | inactive |
| Rgl | DRSC11267 | 143 | 93.5 | – | – | inactive |
| CG13876 | DRSC08346 | 87.8 | 152 | – | – | inactive |

Continued (5 carried over from the part before).
| gene knocked down | dsRNA | calcium signal, replicate 1 | calcium signal, replicate 2 | retest calcium signal, replicate 1 | retest calcium signal, replicate 2 | Call |
| --- | --- | --- | --- | --- | --- | --- |
| Prosap | DRSC07081 | 255 | 158 | – | – | inactive |
| CG16825 | DRSC02526 | 91.6 | 118 | – | – | inactive |
| Usp5 | DRSC08244 | 84.3 | 98.7 | – | – | inactive |
| Rgl | DRSC11267 | 143 | 93.5 | – | – | inactive |
| CG13876 | DRSC08346 | 87.8 | 152 | – | – | inactive |
| CG10139 | DRSC05972 | 180 | 162 | – | – | inactive |
| CG6462 | DRSC10641 | 81.3 | 65.1 | – | – | inactive |
| tty | DRSC20588 | 138 | 107 | – | – | inactive |
| CG15253 | DRSC01871 | 95.7 | 140 | – | – | inactive |
| CG3770 | DRSC04416 | 94.2 | 98.9 | – | – | inactive |
| SerRS-m | DRSC14096 | 130 | 189 | – | – | inactive |
| dgrn | DRSC12154 | 146 | 142 | – | – | inactive |
| CG3500 | DRSC04379 | 59.1 | 182 | – | – | active |
| HIP + HIP-R | DRSC18245 | 129 | 163 | – | – | inactive |
| otp | DRSC04050 | 162 | 105 | – | – | inactive |
| otp | DRSC04707 | 188 | 116 | – | – | inactive |
| RNaseX25 | DRSC11259 | 86.9 | 126 | – | – | inactive |
| Caper | DRSC02137 | 125 | 221 | – | – | inactive |
| Klp64D | DRSC11204 | 123 | 86.7 | – | – | inactive |
| CG18754 | DRSC15387 | 88 | 104 | – | – | inactive |
| ppk22 | DRSC22093 | 95.8 | 204 | – | – | inactive |
| CG6836 | DRSC10722 | 59 | 77.5 | – | – | active |
| CG5196 | DRSC15735 | 179 | 113 | – | – | inactive |
| CG12003 | DRSC08214 | 127 | 117 | – | – | inactive |
| eIF3g1 | DRSC18427 | 102 | 86.4 | – | – | inactive |
| CG14740 | DRSC14960 | 124 | 129 | – | – | inactive |
| AstC-R2 | DRSC10051 | 124 | 171 | – | – | inactive |
| mspo | DRSC07652 | 98.8 | 181 | – | – | inactive |
| Cks85A | DRSC16562 | 117 | 156 | – | – | inactive |
| drd | DRSC19343 | 97 | 93.5 | – | – | inactive |
| drd | DRSC21466 | 112 | 94.7 | – | – | inactive |
| lost | DRSC12234 | 67.1 | 128 | 152 | 104 | active |
| lost | DRSC21987 | 70.8 | 117 | – | – | inactive |
| Ccdc58 + CG34116 | DRSC10105 | 121 | 116 | – | – | inactive |
| CG43057 | DRSC01015 | 152 | 89.2 | – | – | inactive |
| alpha-Est4 | DRSC12616 | 122 | 140 | – | – | inactive |
| phr | DRSC07662 | 85.7 | 101 | – | – | inactive |
| Hr39 | DRSC03346 | 156 | 134 | – | – | inactive |
| cuff | DRSC06315 | 76.2 | 151 | – | – | inactive |
| z | DRSC18855 | 135 | 155 | – | – | inactive |
| z | DRSC23134 | 126 | 193 | – | – | inactive |
| sip2 | DRSC03154 | 141 | 88.8 | – | – | inactive |
| Ptpa | DRSC00776 | 145 | 275 | – | – | inactive |
| CG12241 | DRSC14481 | 120 | 99.7 | – | – | inactive |
| CG15715 | DRSC10216 | 105 | 120 | – | – | inactive |
| CG12643 | DRSC17849 | 62.7 | 143 | – | – | active |
| Spn31A | DRSC02780 | 72.8 | 99.7 | – | – | inactive |
| CG6847 | DRSC19213 | 95.6 | 98.4 | – | – | inactive |
| CG6847 | DRSC20009 | 89.7 | 84.9 | – | – | inactive |
| CG13793 | DRSC02297 | 122 | 95.3 | – | – | inactive |
| TM9SF4 | DRSC01888 | 93.4 | 110 | – | – | inactive |
| Jhbp7 | DRSC14408 | 192 | 131 | – | – | inactive |
| eIF4H2 | DRSC14582 | 109 | 163 | – | – | inactive |
| CG2269 | DRSC06833 | 193 | 154 | – | – | inactive |
| GluRIB | DRSC10258 | 56.8 | 107 | – | – | inactive |
| GluRIB | DRSC11177 | 91.5 | 108 | – | – | inactive |
| CG13229 | DRSC06349 | 94.8 | 105 | – | – | inactive |
